Data from patent US4086221A (Toyo Jozo Kabushiki Kaisha, priority 1975, dated 1978).
The star is where a group is joined. Tos = Cc1ccc(S(=O)(=O)*)cc1; Boc = CC(C)(C)OC(=O)*; OBn = c1ccc(CO*)cc1; Bn = c1ccc(C*)cc1

Assay: general procedure: solution-phase peptide synthesis; WSC/HOBT; DCC/HOSU; DCC/HOBT; active esters (OSU, ONP); azide method
Conditions: coupling step

| Substance | step yield [%] |
| --- | --- |
| AOC-Arg(Tos)-Thr(Bzl)-Asp(OBzl)-Val-Gly-Ala-Gly-Thr(Bzl)-Pro-Nh2 | 82.7 |
| Boc-T(Bn)D(OBn)VGAGT(Bn)P-NH2 | 77.1 |
| Boc-QT(Bn)Y(Bn)PR(Tos)T(Bn)D(OBn)VGAGT(Bn)P-NH2 | 82.9 |
